Values from PubChem BioAssay AID1159578 (Peter MacCallum Cancer Centre, 2015).
Purpose: 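Genome-wide hunt for genes controlling movement of lymphatic endothelial cells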 (primary screen). System: human lymphatic endothelial cells. Reagents: siRNA pool against human genes, 40 nM. Timing: 48 h after transfection. Measured: 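Cells stained with dye and imaged after a scratch; covered wound area and nuclei counted, duplicates averaged, migration set against mock wells and turned into a robust z-score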. Direction: migration robust z-score: higher = faster migration into the scratch; nuclei per well: higher = more cells in the well. Call rule: 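Migration changed when robust z exceeds 2 or falls below -2 and mean nuclei number is at least 3300; otherwise not called changed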. Calls: active = migration changed; inactive = no migration change, or too few cells.
The whole screen tested about 18,000 reagents; this is a random part of them. Of all reagents, about 1,030 (5.7%) are marked active. 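Inactive calls also include pools with fewer than 3300 nuclei, whose migration was not assessed.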 Raw values are not corrected between plates. Further read-outs or replicates are left out here. No sequences are given here.

Against RFXANK, the values are migration robust z-score 0.57; migration class with cell-count check migration z between -2 and 2; enough cells; nuclei per well, duplicate mean 4998; inactive.
Silencing of ACY1 resulted in: migration robust z-score 0.36; migration class with cell-count check migration z between -2 and 2; enough cells; nuclei per well, duplicate mean 3460; inactive.
After knock-down of MAU2, the screen gave migration robust z-score 0.26; migration class with cell-count check migration z between -2 and 2; enough cells; nuclei per well, duplicate mean 5594; inactive.
EPHX3 gave migration robust z-score -1.64; migration class with cell-count check migration z between -2 and 2; enough cells; nuclei per well, duplicate mean 5556; inactive.

Sorted by “nuclei per well, duplicate mean” (high to low): 2 of the entries above.
MAU2 | migration robust z-score: 0.26; migration class with cell-count check: migration z between -2 and 2; enough cells; nuclei per well, duplicate mean: 5594; outcome: inactive
ACY1 | migration robust z-score: 0.36; migration class with cell-count check: migration z between -2 and 2; enough cells; nuclei per well, duplicate mean: 3460; outcome: inactive

The results go on:
For LEP, the values are migration robust z-score 1.74; migration class with cell-count check migration z between -2 and 2; enough cells; nuclei per well, duplicate mean 6100; inactive.
Against POTEG, the values are migration robust z-score -1.23; migration class with cell-count check migration z between -2 and 2; enough cells; nuclei per well, duplicate mean 4636; inactive.
Silencing of NAIP came out at: migration robust z-score -0.18; migration class with cell-count check migration z between -2 and 2; enough cells; nuclei per well, duplicate mean 5258; inactive.
SASS6 scored migration robust z-score 0; migration class with cell-count check migration z between -2 and 2; enough cells; nuclei per well, duplicate mean 5337; inactive.
OR2W3 showed migration robust z-score 0.88; migration class with cell-count check migration z between -2 and 2; enough cells; nuclei per well, duplicate mean 5200; inactive.
DNAAF10 gave migration robust z-score 0.64; migration class with cell-count check migration z between -2 and 2; enough cells; nuclei per well, duplicate mean 7073; inactive.
Depletion of CFAP43 came out at: migration robust z-score 0.22; migration class with cell-count check migration z between -2 and 2; enough cells; nuclei per well, duplicate mean 5160; inactive.
CEBPE gave migration robust z-score -1.08; migration class with cell-count check migration z between -2 and 2; enough cells; nuclei per well, duplicate mean 6506; inactive.
After knock-down of BPIFB4 the results were migration robust z-score 0.36; migration class with cell-count check migration z between -2 and 2; enough cells; nuclei per well, duplicate mean 6601; inactive.
Against PLEKHG1, the entry reads migration robust z-score -1.66; migration class with cell-count check under 3300 nuclei; migration not judged; nuclei per well, duplicate mean 2754; inactive.
